The list shows a part of the results. These are further read-outs of the screen, such as a control signal, another cell line or another target. No call is given for them. Most of these compounds were active or inconclusive in the main read-out, so they are no random draw. Potencies come from curve fits of mixed quality, noted in brackets.
Assay: qHTS Assay for Lipid Storage Modulators in Drosophila S3 Cells;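 on cell number change: cells counted by Cell Tracker Red CMTPX staining in the red channel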
Conditions: BODIPY lipid droplet fluorescence, 18-24 h; for cell number change: measured here: cell count max response, cells fed with added oleic acid
How it was run: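 Laser-scanning cytometry quantifies lipid droplet accumulation (500–530 nm total intensity; droplet/cell object ratio) in oleic acid-fed (400 uM added) Drosophila S3 cells treated with a concentration series. 20 uM Triacsin C defined 100% inhibition.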

[1] = measured here: lipid fluorescence (Fed channel) AC50, cells fed with added oleic acid
[2] = measured here: cell number channel AC50, cells fed with added oleic acid

Q: For `CC1CCN(C(=O)COC(=O)c2n[nH]c(=O)c3ccccc23)CC1`, which cell number change is on record?
A: 28.2%

Q: And the AC50 [1]?
A: 0.517 µM [rising, full curve]

Q: Which cell number change does the source give for `CCNC(=S)N(CCCN(C)C)Cc1cc2cc3c(cc2[nH]c1=O)OCCO3` here?
A: -6.2%

Q: What about the AC50 [1] of the same compound?
A: 3.66 µM [rising, partial curve, poor fit]

Q: Which results are given for `CC(C)(C)CC(=O)N1CCC(c2nc3c(nnn3Cc3c(F)cccc3Cl)c(=O)[nH]2)CC1`?
A: cell number change: -12%; AC50 [1]: 4.61 µM [rising, full curve]

Q: Which results are given for `CC(C)(O)C#Cc1ccc(C(=O)N2CCN(c3ccc([N+](=O)[O-])cc3)CC2)cc1`?
A: cell number change: 7.38%; AC50 [1]: 0.00461 µM [rising, full curve, poor fit]

Q: For `O=C(COC(=O)c1ccccc1OCC(=O)Nc1ccc(Br)cc1)Nc1ccccc1`, which cell number change is on record?
A: 5.33%

Q: And the AC50 [1]?
A: 2.59 µM [rising, single point]

Q: Which cell number change does the source give for `O=C(NNC(=S)Nc1ccc(Cl)cc1Cl)c1cccnc1` here?
A: 3.55%

Q: And the AC50 [1]?
A: 29.1 µM [rising, single point]

Q: For `COc1ccc(NC2CCCN(C(=O)c3cccc(C(F)(F)F)c3)C2)cc1OC` (configuration not stated), which cell number change is on record?
A: -10.7%

Q: And the AC50 [2]?
A: 6.51 µM [falling, single point]

Q: Which results are given for `N#Cc1c(NC(=O)CN2CCN(S(=O)(=O)c3ccc4c(c3)OCCO4)CC2)sc2c1CCC2`?
A: cell number change: 15.2%; AC50 [1]: 2.31 µM [falling, partial curve]

Q: With `c1coc(CNc2nc3ccccc3s2)c1` as the compound, how does the cell number change read?
A: 25.6%

Q: What about the AC50 [1] of the same compound?
A: 10.3 µM [rising, single point]

Q: Which results are given for `C/C(=N\NC(=O)c1ccccc1Cl)c1ccccn1`?
A: cell number change: -4.72%; AC50 [1]: 8.2 µM [falling, partial curve]

Q: Which cell number change does the source give for `COC(=O)Nc1cc([N+](=O)[O-])ccc1OC` here?
A: 6.51%

Q: And the AC50 [2]?
A: 4.11 µM [falling, partial curve, poor fit]

Q: What about the AC50 [1] of the same compound?
A: 0.0651 µM [rising, full curve, poor fit]

Q: Which cell number change does the source give for `CCC(C)(C)C1CCc2nc3ccccc3c(C(=O)OC(C)C(=O)Nc3c(C)n(C)n(-c4ccccc4)c3=O)c2C1` (configuration not stated) here?
A: 13%

Q: What about the AC50 [2] of the same compound?
A: 0.461 µM [falling, single point]

Q: What about the AC50 [1] of the same compound?
A: 0.731 µM [falling, single point]

Q: What does the source list for `CCOC(=O)COc1ccc(/C=C/[N+](=O)[O-])c(OCC(=O)OCC)c1`?
A: cell number change: -41.8%; AC50 [2]: 20.6 µM [falling, single point]; AC50 [1]: 18.4 µM [falling, partial curve]

Q: Which cell number change does the source give for `Cc1ccc(-c2csc3nnc(SCC(=O)Nc4nsc(-c5ccccc5)n4)n23)cc1` here?
A: 120%

Q: And the AC50 [2]?
A: 2.59 µM [rising, partial curve]

Q: What about the AC50 [1] of the same compound?
A: 0.259 µM [rising, full curve, poor fit]
